PubChem BioAssay AID493014 (National Center for Advancing Translational Sciences (NCATS), 2011)
Some of the results follow. Shown are side measurements of this screen, not its main read-out; they come without a call. Compounds called inactive in the main read-out are mostly missing here. Potencies come from curve fits of mixed quality, noted in brackets.

Assay: qHTS Assay to Find Inhibitors of Chronic Active B-Cell Receptor Signaling
Conditions: ABC-DLBCL IkBa-CBG/CBR reporter, luminescence ratio (green luciferase fused to IkBa over red control in TMD8 lymphoma cells), 4 h
How it was run: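 TMD8 human ABC-DLBCL cells with doxycycline-inducible IκBα–green luciferase fusion and unfused red luciferase, in 0.5% FBS medium; compounds up to 46 uM, 4 h at 37C. Green/red luminescence ratio, filter-overlap corrected, fitted to concentration-response curves.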

[1] = measured here: CBR red luminescence, cell number
[2] = measured here: IkBa-CBG green luminescence

| SMILES | AC50 [1] | AC50 [2] |
| --- | --- | --- |
| Fc1ccc(-n2cc(CNCCc3cccnc3)c(-c3ccccc3Cl)n2)cc1 | 35.5 µM [falling, single point] |  |
| CCOC(=O)c1cc(-c2ccc(OC)cc2)n(CCC(=O)Nc2cccc(C(C)=O)c2)c1C | 31.6 µM [rising, single point] |  |
| COc1ccc(NC(=O)C2=CN3CCS(=O)(=O)N=C3C=C2)c(OC)c1 | 0.366 µM [rising, partial curve, poor fit] |  |
| CCOc1ccc(CSc2nc(C)cc(COC)c2C#N)cc1OCC | 0.891 µM [rising, full curve] |  |
| O=C(COc1ccccc1)NCC(c1ccco1)N1CCN(c2ccc(F)cc2)CC1 (stereo not drawn) | 20.6 µM [falling, single point] |  |
| CNC(=S)N1N=C(c2ccc(OC)cc2)CC1c1ccc(Cl)cc1Cl (stereo not drawn) | 0.562 µM [rising, full curve, poor fit] |  |
| CCC/C(=N\NC(=O)c1csc(C)c1C)c1cccs1 | 29.1 µM [falling, single point] |  |
| CC(C)n1c(=O)n(CC(=O)NCC2CCCO2)c(=O)c2c3c(sc21)COC(C)(C)C3 (stereo not drawn) | 3.16 µM [rising, full curve] |  |
| COc1ccc(C(=O)OCC(=O)c2ccc3[nH]c(=O)[nH]c3c2)c(OC)c1OC | 8.2 µM [rising, partial curve, poor fit] |  |
| CCc1ccccc1NC(=O)c1cccc(NC(=O)/C=C/c2ccco2)c1 | 29.1 µM [falling, single point] |  |
| N=c1c2cn[nH]c2nc(SCC(=O)c2ccc(Br)cc2)n1-c1ccc(Br)cc1 | 0.708 µM [rising, full curve, poor fit] |  |
| CCCCn1nc(C(=O)NCC(c2cccs2)N2CCOCC2)c2ccccc2c1=O (stereo not drawn) |  | 14.6 µM [rising, partial curve, poor fit] |
| NC(=O)CSc1c[nH]c2ccccc12 | 4.11 µM [rising, single point] |  |
| CCC(C)/C(C)=N/NC(=O)c1ccccc1OCCOc1ccccc1 (stereo not drawn) | 5.01 µM [falling, partial curve] |  |
| COc1cc(C(=O)NCC(=O)OCC(=O)Nc2nnc(-c3ccccc3)o2)cc(OC)c1OC | 18.4 µM [falling, single point] |  |
| COc1cc(-c2nnc(-c3cccs3)o2)cc(OC)c1OC | 3.66 µM [rising, full curve] |  |
| COC1=C(Nc2ccccc2OC)C(=O)c2ccccc2C1=O | 17.8 µM [falling, partial curve, poor fit] |  |
| COc1cc(C)ccc1OCCCOc1c(Cl)cccc1Cl | 9.2 µM [rising, partial curve] |  |
| O=C(c1cnn(-c2ccc(Cl)cc2)c1)c1ccccc1O | 12.6 µM [falling, partial curve] |  |
| CC(=O)C1=C(O)C(=O)N(CCc2c[nH]c3ccccc23)C1c1cccc(O)c1 (stereo not drawn) | 1.64 µM [rising, partial curve, poor fit] |  |
| COc1ccccc1N1CCN(CC(O)COCCOc2ccc(Br)cc2)CC1 (stereo not drawn) | 20.6 µM [falling, partial curve, poor fit] |  |

Arranged by length of the SMILES (smallest number first): some entries from above.

| SMILES | AC50 [1] | AC50 [2] |
| --- | --- | --- |
| O=C(c1cnn(-c2ccc(Cl)cc2)c1)c1ccccc1O | 12.6 µM [falling, partial curve] |  |
| CNC(=S)N1N=C(c2ccc(OC)cc2)CC1c1ccc(Cl)cc1Cl (stereo not drawn) | 0.562 µM [rising, full curve, poor fit] |  |
| COc1cc(C(=O)NCC(=O)OCC(=O)Nc2nnc(-c3ccccc3)o2)cc(OC)c1OC | 18.4 µM [falling, single point] |  |

Following part:

| SMILES | AC50 [1] | AC50 [2] |
| --- | --- | --- |
| COc1cc([C@@H]2c3cc4c(cc3[C@@H](O)[C@H]3COC(=O)[C@H]23)OCO4)cc(OC)c1O[Si](C)(C)C(C)(C)C | 35.5 µM [rising, single point] | 25.1 µM [falling, single point] |
| Fc1ccc(C2=NNC(=NCc3ccccc3)SC2)cc1F | 12.6 µM [falling, partial curve, poor fit] |  |
| COc1ccc(CCNC(=O)c2ccc(-c3ccc([N+](=O)[O-])cc3Cl)o2)cc1OC | 20.6 µM [falling, single point] |  |
| O=C(/C=C/c1ccccc1[N+](=O)[O-])NCCN1C(=O)S/C(=C\c2ccc(F)cc2)C1=O | 31.6 µM [rising, partial curve, poor fit] |  |
| CCC(=O)c1cccc2c1N=CC1=C(CC(C)(C)CC1=O)N2 | 6.51 µM [rising, single point] |  |
| Cc1nnc(SCC(N)=O)n1CCc1ccccc1 | 0.00411 µM [rising, full curve, poor fit] |  |
| Cc1ccccc1Nc1ccc2nonc2c1[N+](=O)[O-] | 15.8 µM [rising, partial curve, poor fit] |  |
| Cc1cc(C(=O)Nc2cc(C(C)(C)C)on2)c(C)o1 | 0.794 µM [falling, full curve, poor fit] |  |
| CCOc1ccc(N=C/C=C/c2ccccc2)c(O)c1 | 12.6 µM [rising, single point] |  |
| COC(=O)CCC(NC(=O)c1cc(C)oc1C)C(=O)OC (stereo not drawn) | 29.1 µM [rising, single point] |  |
| CCOC(=O)C1=C(c2ccccc2)N=C2SCC(=O)N2C1c1cccc(OC)c1 (stereo not drawn) | 0.92 µM [falling, full curve, poor fit] |  |
| Oc1c(Cl)cc(Cl)cc1/C=N/Nc1ncc(Br)cn1 | 0.891 µM [rising, full curve, poor fit] |  |
| C[N+](C)(C)c1ccc(/C=N/Nc2nc(Cl)c(C#N)c(Cl)c2Cl)cc1 | 11.6 µM [falling, partial curve] |  |
| CCOc1cc(/C=C/c2cc(C(F)(F)F)[nH]c(=O)n2)ccc1O | 35.5 µM [falling, single point] |  |
| Fc1ccc(-c2ccc(CNCc3ccccn3)o2)cc1Cl | 6.31 µM [rising, full curve, poor fit] |  |
| Cn1nnnc1SCC(=O)Nc1ccccn1 | 6.51 µM [falling, single point] | 6.51 µM [rising, partial curve, poor fit] |
| CCOC(=O)c1snc(-c2ccc(F)cc2)c1N | 0.562 µM [rising, full curve] |  |
| O=C(CNC(=O)c1cccc(Cl)c1)Nc1ccc(F)c(F)c1F | 8.91 µM [rising, single point] |  |
| Clc1ccc(OCc2nc(-c3ccccn3)n[nH]2)cc1 | 9.2 µM [falling, partial curve, poor fit] |  |
| COc1cccc(C(=O)Nc2ccc(NC(=O)C3C4C=CC(C4)C3C(=O)O)cc2)c1 (stereo not drawn) | 10 µM [falling, partial curve, poor fit] |  |
